Percent effect of library compounds

Sequences of proteins named here, by UniProt entry; tags and fusion partners are left off. Residues count along the entry.
UniProt A4I591, 1-473: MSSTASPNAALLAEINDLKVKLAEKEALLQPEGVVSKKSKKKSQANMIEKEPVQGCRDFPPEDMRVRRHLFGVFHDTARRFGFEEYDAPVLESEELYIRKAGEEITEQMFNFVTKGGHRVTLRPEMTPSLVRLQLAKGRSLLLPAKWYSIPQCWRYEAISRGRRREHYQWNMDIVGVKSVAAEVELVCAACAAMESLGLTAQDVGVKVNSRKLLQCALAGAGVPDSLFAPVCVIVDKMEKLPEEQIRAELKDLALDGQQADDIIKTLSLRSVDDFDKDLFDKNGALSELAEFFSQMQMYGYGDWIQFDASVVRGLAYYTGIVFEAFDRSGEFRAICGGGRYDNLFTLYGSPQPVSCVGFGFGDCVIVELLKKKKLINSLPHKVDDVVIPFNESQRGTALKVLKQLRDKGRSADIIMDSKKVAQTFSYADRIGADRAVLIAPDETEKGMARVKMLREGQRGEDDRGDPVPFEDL
UniProt Q4DA54, 1-478: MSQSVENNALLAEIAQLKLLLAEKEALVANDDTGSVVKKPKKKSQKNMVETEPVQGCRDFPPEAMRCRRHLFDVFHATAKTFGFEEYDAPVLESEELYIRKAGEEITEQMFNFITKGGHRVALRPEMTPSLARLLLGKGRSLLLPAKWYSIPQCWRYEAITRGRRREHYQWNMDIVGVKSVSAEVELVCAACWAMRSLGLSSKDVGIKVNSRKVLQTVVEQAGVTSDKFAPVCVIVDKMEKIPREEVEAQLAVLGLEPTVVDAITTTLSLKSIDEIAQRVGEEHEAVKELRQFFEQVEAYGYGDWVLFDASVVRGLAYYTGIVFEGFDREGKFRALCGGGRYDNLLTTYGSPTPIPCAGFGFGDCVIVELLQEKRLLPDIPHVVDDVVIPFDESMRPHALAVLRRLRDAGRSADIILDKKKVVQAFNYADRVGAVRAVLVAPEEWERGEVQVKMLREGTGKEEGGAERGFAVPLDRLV
UniProt P9WPC5, whole entry: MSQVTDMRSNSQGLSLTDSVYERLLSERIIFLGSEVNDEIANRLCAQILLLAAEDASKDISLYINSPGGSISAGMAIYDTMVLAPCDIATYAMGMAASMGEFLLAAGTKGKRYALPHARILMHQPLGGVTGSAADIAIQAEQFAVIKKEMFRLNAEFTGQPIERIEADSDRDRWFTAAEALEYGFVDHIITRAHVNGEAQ
UniProt P9WPC3, whole entry partner: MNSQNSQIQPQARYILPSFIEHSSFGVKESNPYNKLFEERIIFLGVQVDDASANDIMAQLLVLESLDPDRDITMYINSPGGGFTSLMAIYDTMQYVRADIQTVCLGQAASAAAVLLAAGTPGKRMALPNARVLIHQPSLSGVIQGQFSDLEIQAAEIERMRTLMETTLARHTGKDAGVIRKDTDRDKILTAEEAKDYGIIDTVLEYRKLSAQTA

Values are the deposited “Percent Effect”, in %. The controls that fix the scale are not given in the record; negative values are as filed. Compounds were drawn at random from those tested, without regard to their results.

LiHisRS: 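Enzyme assay of histidyl-tRNA synthetase; the read-out is not stated. Target: Histidine-tRNA ligase, Leishmania infantum (UniProt A4I591). Tested at 30 µM. Higher reads as stronger inhibition (inferred: compounds with an IC50 in retests scored well above the rest). The assay is labelled LdHisRS but filed under L. infantum. Of about 69,000 compounds tested this way, about 410 (0.6%) reached 50% or more in at least one test.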
TcHisRS: 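Histidine-tRNA ligase, Trypanosoma cruzi CL Brener (UniProt Q4DA54). Enzyme assay of histidyl-tRNA synthetase; the read-out is not stated. Compounds at 30 µM. The record gives no direction; compounds that gave an IC50 in retests scored well above the rest, so higher reads as stronger inhibition. Of about 69,000 compounds tested this way, about 31 (0.045%) reached 50% or more in at least one test.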
ClpP1P2: 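ClpP1P2, Mycobacterium tuberculosis (UniProt P9WPC5 and UniProt P9WPC3). Protease assay of ClpP1P2, read by the AMC dye that it sets free. Compounds at 50 µM. Higher reads as stronger inhibition, judged from the few compounds that gave an IC50. Most other retested compounds had strongly negative values. Size under these conditions: about 69,000 compounds, about 10 of them at 50% or above in at least one test.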

structure,LiHisRS,TcHisRS,ClpP1P2
N#Cc1cccc(N2CC3(CCN(C(=O)c4ccncc4)C3)CC2=O)c1 (stereo not given),9.091,10.74,1.339
CN(C)CC1CN(Cc2coc(-c3cccs3)n2)CCO1 (stereo not given),14.86,0.3774,3.515
Cc1nn(-c2ccccc2)nc1C(=O)NCC(c1ccsc1)N(C)C (stereo not given),14.52,-1.948,-11.66
Cc1ccc(N2CCCC(N(C)Cc3nc(C)c(C)o3)C2)nn1 (stereo not given),8.065,4.598,-0.2785
CC(C)Cc1cc(NC(=O)c2ccncc2)n(C)n1,13.91,1.149,6.832
COCCNC(=O)c1nnc2ccc(N3CCOCC3)cc2n1,12.07,-2.609,12.65
COc1cc(CN(C)C(=O)Cc2c(C)nn(C)c2C)ccc1OC(F)F,20.19,5.691,-6.461
Cc1ccnn1CCC(=O)N1CCN(C2CCc3ccccc3C2)CC1 (stereo not given),19.74,2.174,-0.7408
Cc1cc(C(=O)Nc2n[nH]c(C3CC3)n2)c2c(C)nn(C)c2n1,22.92,6.25,-11.95
NC(=O)c1ccccc1NC(=O)CCN1CCN(c2ccccc2)CC1,25,4.969,-3.208
O=C(CCCOc1ccccc1F)Nc1cc[nH]n1,11.61,10,-2.565
Brc1cc2c(cc1CN1CCC(N3CCCCC3)CC1)OCCO2,31.73,0,-0.9097
Cc1cccnc1CN1CCC2(CC(Nc3ccncn3)C2)C1 (stereo not given),18.56,10,-13.7
O=C(NCCc1cccnc1)NC1CCOC2(CCCCC2)C1 (stereo not given),-1.299,5.419,-12.14
Cc1ccc(N2CCC3(CCN(Cc4csc(C)n4)C3=O)C2)nn1 (stereo not given),8.108,0,-1.246
CCN1CC2(CCN(C(=O)C(C)Oc3ccc(F)cc3F)CC2)OC1=O (stereo not given),6.667,2.597,2.169
CC(C)C(=O)NC1CCCN(C(=O)c2cc(Cl)ccc2O)C1 (stereo not given),15.79,3.152,0.1164
Cc1ccc(CCNC(=O)Cn2nc(C)n(Cc3ccccc3)c2=O)o1,15.04,7.2,-2.038
CC(C)N1CCC(NC(=O)NCc2ccccc2)CC1,19.05,2.02,8.575
COc1c(CNC(c2nccn2C)C(C)C)c(C)nn1C (stereo not given),-4,4.183,14.43
CC(C)N1CCC(c2n[nH]cc2-c2ccnc(N)c2)C1 (stereo not given),7.246,4.545,-8.034
CCOCc1cnc2n1CCN(Cc1nc(C)cs1)C2C (stereo not given),2.632,5.747,-7.957
CNC(=O)CN1CC[C@H]2CN(C(=O)c3ccccc3F)C[C@H]2C1,16.67,6.542,1.183
O=C(Nc1ccccc1Cn1cccn1)N1CCCC(N2CCCC2)C1 (stereo not given),-1.042,7.182,0.0589
Cc1nnc2n1CCN(C(=O)c1cc(Cl)c(Br)[nH]1)C2,11.01,0.5882,-44.77
NC(=O)NC(CC(=O)NCCc1ccc(F)cc1)c1ccccc1 (stereo not given),15.05,-2.469,-1.689
COC(=O)c1cc2c(OC)c(OC)c(OC)cc2[nH]1,0,-1.98,-2.177
Cc1nc2sccn2c1CNc1cc(C(=O)O)ccc1F,13.7,7.368,15.53
CCO[C@@H]1CCN(C(=O)c2cscn2)[C@@H]1Cc1cnn(C)c1,-0.7299,2.732,-5.258
CC(C)=CCCC(C)(O)c1cc(C(N)=O)no1 (stereo not given),6.452,2.591,-8.099
O=C(NC(C(=O)Nc1cc[nH]n1)c1ccccc1)C1CCC1 (stereo not given),16.67,15.29,-7.046
Cc1cc(=O)n(CCNC(=O)c2ccccc2Cl)cn1,17.33,0.5291,0.8694
CCc1nnc(N2C[C@@H](CN(C)CCO)[C@@H](CO)C2)s1,13.33,3.896,2.532
COc1cc2c(cc1OC)S(=O)(=O)N(Cc1cccc(C)c1)C2=O,10.83,-2.632,3.321
Cc1cnc2c(S(=O)(=O)NCC3CCN(C4CC4)C3)cccc2c1 (stereo not given),28.79,0,2.003
COc1cccc(CN(C)C(=O)c2ccc(NC(C)=O)s2)c1OC,22.22,-0.6135,5.975
CCN1CC2(CC1=O)CN(C(=O)NC(C)C)CCN(C(=O)NC(C)C)C2,9.615,1.676,-13.25
Cn1nccc1C(=O)N1CCN(C(=O)C2CC2)[C@@H]2CS(=O)(=O)C[C@@H]21,5.208,4.469,-2.853
CS(=O)(=O)N1CCOCC2(CCN(c3ccccn3)C2)C1 (stereo not given),23.08,6.098,8.122
CCN(CC)c1nc2sc(C(=O)NCC(=O)OC)cc2s1,13.22,-4.082,-10.87
COCCNc1c(-c2ccc(Cl)cc2)c(=O)c1=O,10.96,6,-4.299
C[C@@H]1CCC[C@H](C)N1CC(=O)N1CCc2[nH]c(-c3ccccc3)nc2C1,19.35,0.8772,-8.378
NC1(c2nc(C(F)(F)F)cc(=O)[nH]2)CCCC1,0,-1.235,6.795
CNC(=O)CCNC(=O)c1cccc(Cn2nc(C)cc2C)c1,27.88,2.439,-4.889

2 of the entries, repeated:

COCCNC(=O)c1nnc2ccc(N3CCOCC3)cc2n1 read LiHisRS: 12.07%; TcHisRS: -2.609%; ClpP1P2: 12.65%.
CCOCc1cnc2n1CCN(Cc1nc(C)cs1)C2C (stereo not given) read LiHisRS: 2.632%; TcHisRS: 5.747%; ClpP1P2: -7.957%.

From ChEMBL document CHEMBL3988442, “University of Dundee, Small-Polar-MMV Screening Library” (2021).